No constants are given. Whether binding was seen depends on the method and setting. For some of these results: Binding seen in cells or lysates may run through a third protein. Some binding calls cover weakened binding; strength is not graded here.

By UniProt entry, the sequences of proteins in these tests, tags left out. Where a name states a change or a piece, a line headed by the entry shows the natural chain unless it says otherwise. Residues count along the entry.
UniProt P17301: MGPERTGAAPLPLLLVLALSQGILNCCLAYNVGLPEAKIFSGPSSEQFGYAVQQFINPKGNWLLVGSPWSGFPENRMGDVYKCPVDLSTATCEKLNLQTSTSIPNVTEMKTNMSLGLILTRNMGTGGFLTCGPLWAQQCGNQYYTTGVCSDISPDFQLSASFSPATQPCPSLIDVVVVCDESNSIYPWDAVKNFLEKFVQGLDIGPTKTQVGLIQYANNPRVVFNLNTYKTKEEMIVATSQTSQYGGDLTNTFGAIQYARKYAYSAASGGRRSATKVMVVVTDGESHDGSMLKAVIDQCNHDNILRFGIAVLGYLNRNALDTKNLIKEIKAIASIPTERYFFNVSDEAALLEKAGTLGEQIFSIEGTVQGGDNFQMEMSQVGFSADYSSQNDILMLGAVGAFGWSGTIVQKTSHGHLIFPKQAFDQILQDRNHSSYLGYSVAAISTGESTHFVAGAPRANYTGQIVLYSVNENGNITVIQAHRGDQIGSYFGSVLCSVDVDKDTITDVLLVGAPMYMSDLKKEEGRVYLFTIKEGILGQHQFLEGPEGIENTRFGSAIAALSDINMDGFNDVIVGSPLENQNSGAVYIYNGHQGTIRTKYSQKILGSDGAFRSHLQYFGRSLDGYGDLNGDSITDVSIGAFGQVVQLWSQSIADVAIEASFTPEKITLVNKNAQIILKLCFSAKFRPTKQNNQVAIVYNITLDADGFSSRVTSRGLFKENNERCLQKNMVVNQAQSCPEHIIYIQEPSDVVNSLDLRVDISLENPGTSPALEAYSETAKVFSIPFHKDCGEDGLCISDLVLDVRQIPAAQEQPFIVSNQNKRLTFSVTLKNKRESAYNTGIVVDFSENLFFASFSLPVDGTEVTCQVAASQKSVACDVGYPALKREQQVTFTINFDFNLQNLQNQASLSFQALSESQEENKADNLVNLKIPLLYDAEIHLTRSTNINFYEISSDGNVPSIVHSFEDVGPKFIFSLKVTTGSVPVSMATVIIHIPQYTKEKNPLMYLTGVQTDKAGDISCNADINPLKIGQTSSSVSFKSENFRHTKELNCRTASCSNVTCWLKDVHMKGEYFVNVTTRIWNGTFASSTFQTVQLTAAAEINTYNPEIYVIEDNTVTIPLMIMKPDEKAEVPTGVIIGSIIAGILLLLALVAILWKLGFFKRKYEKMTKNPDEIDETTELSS
UniProt P05556: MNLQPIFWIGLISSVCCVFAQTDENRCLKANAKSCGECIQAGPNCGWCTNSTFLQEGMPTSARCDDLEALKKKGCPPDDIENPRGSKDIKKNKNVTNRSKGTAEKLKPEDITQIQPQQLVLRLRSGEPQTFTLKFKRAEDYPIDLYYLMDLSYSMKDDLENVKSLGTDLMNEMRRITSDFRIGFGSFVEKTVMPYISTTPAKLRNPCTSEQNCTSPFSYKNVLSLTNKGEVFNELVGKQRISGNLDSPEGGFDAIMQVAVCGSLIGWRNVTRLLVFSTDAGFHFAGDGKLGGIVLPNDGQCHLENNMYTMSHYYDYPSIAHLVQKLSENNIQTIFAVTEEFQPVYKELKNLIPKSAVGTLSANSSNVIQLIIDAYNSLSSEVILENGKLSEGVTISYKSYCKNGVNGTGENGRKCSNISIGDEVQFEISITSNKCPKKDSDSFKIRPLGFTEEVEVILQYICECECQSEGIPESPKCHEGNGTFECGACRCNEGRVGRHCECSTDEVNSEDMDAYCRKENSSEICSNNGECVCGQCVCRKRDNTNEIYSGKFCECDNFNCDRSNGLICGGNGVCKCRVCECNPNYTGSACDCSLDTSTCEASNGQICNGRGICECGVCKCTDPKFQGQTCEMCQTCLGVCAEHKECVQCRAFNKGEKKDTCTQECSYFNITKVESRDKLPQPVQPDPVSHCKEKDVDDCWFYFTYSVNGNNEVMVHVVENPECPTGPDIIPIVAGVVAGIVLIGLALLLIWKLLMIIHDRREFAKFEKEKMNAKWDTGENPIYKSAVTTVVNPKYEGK
UniProt P02751, residues 32-2477: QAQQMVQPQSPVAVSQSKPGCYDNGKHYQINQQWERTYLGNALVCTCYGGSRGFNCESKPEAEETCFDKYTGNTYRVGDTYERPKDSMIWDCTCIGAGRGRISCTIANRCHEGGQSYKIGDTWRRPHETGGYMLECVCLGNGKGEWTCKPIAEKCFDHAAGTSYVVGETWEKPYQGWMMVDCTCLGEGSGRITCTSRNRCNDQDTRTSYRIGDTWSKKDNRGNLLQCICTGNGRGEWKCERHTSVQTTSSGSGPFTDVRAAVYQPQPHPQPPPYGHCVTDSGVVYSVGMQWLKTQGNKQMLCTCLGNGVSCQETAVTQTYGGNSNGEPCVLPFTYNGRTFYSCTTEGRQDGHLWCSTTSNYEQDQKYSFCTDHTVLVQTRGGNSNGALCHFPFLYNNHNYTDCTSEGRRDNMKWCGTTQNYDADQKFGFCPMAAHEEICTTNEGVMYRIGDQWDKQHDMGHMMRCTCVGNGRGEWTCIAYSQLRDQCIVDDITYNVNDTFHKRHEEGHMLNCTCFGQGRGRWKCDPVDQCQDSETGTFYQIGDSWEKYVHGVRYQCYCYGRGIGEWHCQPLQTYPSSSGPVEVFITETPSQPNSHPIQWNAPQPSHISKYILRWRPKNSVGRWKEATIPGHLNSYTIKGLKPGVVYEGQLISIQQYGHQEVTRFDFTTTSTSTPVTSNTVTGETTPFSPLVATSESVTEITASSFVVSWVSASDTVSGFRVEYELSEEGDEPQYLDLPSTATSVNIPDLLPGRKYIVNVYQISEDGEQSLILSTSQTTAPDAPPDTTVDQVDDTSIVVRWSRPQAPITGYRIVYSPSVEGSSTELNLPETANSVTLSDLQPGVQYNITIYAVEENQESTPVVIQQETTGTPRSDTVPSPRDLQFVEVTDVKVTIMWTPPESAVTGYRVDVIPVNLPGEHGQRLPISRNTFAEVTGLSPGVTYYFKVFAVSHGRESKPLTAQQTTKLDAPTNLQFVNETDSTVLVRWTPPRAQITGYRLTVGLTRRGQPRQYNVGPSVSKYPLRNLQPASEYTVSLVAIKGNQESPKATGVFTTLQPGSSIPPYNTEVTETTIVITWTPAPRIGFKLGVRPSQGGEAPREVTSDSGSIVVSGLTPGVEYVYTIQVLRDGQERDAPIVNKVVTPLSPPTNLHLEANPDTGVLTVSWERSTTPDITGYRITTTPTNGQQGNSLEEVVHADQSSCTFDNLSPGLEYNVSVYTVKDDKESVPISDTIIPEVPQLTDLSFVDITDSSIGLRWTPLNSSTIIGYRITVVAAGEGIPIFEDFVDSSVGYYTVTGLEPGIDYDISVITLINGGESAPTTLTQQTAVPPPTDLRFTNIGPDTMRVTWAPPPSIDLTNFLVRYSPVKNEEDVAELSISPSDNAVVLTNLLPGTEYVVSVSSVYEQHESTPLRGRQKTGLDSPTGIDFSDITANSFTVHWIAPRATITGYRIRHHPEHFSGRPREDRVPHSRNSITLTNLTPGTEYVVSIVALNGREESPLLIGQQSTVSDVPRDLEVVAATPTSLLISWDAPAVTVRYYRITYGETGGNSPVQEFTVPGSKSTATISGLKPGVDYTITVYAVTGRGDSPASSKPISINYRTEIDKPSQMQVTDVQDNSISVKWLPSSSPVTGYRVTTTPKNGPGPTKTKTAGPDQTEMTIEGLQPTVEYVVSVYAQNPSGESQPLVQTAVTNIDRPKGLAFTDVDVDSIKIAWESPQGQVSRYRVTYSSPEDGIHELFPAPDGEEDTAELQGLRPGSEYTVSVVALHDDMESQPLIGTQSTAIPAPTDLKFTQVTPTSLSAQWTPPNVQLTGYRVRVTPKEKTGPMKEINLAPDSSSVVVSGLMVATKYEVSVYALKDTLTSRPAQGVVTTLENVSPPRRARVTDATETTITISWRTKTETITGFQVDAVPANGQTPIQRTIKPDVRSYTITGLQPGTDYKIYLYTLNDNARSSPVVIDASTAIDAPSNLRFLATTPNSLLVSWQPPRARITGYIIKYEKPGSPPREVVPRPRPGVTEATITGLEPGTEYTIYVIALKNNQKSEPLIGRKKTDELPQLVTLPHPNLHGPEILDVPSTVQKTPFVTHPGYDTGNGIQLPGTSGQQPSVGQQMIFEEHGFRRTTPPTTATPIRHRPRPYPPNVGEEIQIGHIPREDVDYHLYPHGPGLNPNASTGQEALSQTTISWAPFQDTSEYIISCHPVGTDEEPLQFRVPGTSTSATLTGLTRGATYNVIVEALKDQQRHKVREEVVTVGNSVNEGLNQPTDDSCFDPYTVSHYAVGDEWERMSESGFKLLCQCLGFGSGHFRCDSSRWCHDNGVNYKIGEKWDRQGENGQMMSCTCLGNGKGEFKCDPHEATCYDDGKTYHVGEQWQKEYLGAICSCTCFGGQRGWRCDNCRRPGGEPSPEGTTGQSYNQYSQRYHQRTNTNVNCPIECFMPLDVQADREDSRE
UniProt P14210, residues 32-728: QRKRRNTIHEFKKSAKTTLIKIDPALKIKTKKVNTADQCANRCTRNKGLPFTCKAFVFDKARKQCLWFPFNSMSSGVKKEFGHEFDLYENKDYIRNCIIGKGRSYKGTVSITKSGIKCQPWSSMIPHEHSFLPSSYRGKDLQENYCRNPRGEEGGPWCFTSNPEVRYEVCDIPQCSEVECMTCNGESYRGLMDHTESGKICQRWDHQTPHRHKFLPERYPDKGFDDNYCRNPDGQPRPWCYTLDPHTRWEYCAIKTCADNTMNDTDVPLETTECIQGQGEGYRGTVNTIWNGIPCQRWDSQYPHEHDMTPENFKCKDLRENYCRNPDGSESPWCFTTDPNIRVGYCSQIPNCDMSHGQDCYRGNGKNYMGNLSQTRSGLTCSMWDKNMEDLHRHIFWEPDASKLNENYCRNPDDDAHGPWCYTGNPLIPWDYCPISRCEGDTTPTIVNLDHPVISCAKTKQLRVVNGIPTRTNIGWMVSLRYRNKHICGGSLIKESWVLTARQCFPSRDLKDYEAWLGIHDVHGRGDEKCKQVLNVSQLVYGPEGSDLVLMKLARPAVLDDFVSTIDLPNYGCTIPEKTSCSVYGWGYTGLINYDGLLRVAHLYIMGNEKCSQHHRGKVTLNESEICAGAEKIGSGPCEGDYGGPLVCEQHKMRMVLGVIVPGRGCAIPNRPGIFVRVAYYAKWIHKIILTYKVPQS
UniProt P08581, residues 25-1390: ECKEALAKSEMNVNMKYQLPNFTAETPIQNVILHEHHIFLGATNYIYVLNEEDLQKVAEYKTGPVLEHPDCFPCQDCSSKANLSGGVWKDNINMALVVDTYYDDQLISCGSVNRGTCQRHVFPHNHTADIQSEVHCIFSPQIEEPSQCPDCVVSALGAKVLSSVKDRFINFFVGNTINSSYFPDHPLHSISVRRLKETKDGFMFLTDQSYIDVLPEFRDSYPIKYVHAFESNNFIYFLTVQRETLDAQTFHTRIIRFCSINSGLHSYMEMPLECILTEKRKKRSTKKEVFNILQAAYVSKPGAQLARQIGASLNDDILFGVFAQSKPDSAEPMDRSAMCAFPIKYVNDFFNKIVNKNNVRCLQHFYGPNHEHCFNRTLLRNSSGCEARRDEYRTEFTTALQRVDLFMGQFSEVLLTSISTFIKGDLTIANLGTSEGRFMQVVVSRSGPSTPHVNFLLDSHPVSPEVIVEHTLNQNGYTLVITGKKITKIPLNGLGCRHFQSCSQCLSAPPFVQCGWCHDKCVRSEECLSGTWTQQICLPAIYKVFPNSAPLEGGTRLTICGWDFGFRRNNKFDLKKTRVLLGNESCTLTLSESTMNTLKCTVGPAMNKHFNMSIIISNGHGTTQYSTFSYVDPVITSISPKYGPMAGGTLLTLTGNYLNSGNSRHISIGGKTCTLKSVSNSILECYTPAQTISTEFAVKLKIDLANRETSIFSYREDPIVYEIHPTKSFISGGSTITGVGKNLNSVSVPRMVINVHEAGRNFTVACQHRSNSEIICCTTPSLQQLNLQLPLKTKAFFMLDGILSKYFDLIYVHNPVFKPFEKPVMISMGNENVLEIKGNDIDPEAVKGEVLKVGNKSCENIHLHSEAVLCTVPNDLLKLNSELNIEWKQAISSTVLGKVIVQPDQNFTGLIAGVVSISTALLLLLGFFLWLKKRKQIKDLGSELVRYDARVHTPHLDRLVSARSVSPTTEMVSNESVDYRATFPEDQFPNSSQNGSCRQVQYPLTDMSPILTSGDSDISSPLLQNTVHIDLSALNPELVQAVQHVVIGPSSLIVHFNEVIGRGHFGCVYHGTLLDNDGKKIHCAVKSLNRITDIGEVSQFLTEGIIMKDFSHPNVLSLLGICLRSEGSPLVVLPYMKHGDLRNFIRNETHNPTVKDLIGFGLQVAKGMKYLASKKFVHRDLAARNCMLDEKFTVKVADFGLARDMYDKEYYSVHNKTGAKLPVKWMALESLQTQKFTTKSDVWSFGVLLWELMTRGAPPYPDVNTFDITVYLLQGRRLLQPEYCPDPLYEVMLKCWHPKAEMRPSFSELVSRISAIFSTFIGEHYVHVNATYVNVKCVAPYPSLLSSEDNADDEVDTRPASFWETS

Drawing on PMC553973, this text covers binding for three substances.

One assay addresses vitronectin (UniProt P04004). Put plainly: radioligand binding; solid phase assay: ECM proteins, FN proteolytic fragments or BSA (10 μg/ml) coated on plastic microtitre wells; 125I-HGF in PBS with 2% BSA, 30 min at room temperature, washed, counted in a γ-counter; both purified.
For assay [1], the target named is integrin α2β1 (human (endogenous in HMVEC)) (UniProt P17301+P05556). In words: co-IP; HMVEC seeded on collagen-1, FN or VN coated wells and stimulated with HGF for 60 min at room temperature; lysates immunoprecipitated with antibodies to α2β1, α5β1 or αvβ3 respectively; blot for Met.
Assay [2] has as its target fibronectin in platelet supernatants (human (endogenous in platelets)) (UniProt P02751). In words: co-IP; supernatants (100,000 x g) of washed human platelets stimulated with thrombin 1 U/ml, immunoprecipitated with monoclonal antibodies to FN or VN or an isotype-matched control; blot for HGF.
The target in assay [3] is vitronectin in platelet supernatants (human (endogenous in platelets)) (UniProt P04004). The assay is described as above.

As to “125I-labelled hepatocyte growth factor (from UniProt P14210 32-728) (ligand)”, the binding result with vitronectin was “binds”.
In the case of “Met receptor tyrosine kinase (from UniProt P08581 25-1390)”, the binding result in assay [1] is given as “binds weakly”.
In the case of “hepatocyte growth factor released from platelets (from UniProt P14210 32-728) (ligand)”, the binding result in assay [2] and in assay [3] was “binds” each time.
